Experimental data published in PubChem BioAssay AID240 (DTP/NCI, 2004).
The list shows only some results of the screen, not a fair sample: it covers a few groups of compounds. Other doses and runs of a compound may be missing. T/C is the treated group as % of the vehicle group. For survival time, this PubChem deposit counts one and a half times the control or more as active, and values a quarter to a half above the control carry no call in these data; other NCI protocols may use other cut-offs. Some entries show no survivor count and are marked so; the dose need not have been tolerated. Schedule codes are those of the source, read here as Q, the interval in days (D) or hours (H), X, the number of doses. Some doses were run more than once; the values are given in rising order.

System: Lymphoma 4 ip in BDF1 mice, median survival
Assay: NCI In Vivo Anticancer Drug Screen. Data for tumor model Lymphoma 4 (intraperitoneal) in B6D2F1 (BDF1) mice
Settings: T/C endpoint: median survival time, schedule: Q01DX010 (ip), vehicle: saline, higher T/C = longer survival
Procedure: The antitumor activity of compounds was measured in mice bearing transplantable tumors. Survival or tumor size were measured and the results are expressed as the measurement made in the treated group (T) divided by the measurement made in the vehicle treated control group (C). The tumor model used in this assay is Lymphoma 4 (intraperitoneal) in B6D2F1 (BDF1) mice

For `NC(Cc1cccc(N(CCCl)CCCl)c1)C(=O)O` (stereo not given), the T/C (dose: 0.63 mg/kg/injection) was 145 % of control [survivor count not shown], the T/C (dose: 1.25 mg/kg/injection) was 125 % of control [survivor count not shown] and the T/C (dose: 2.5 mg/kg/injection) was 93 % of control [survivor count not shown]. For the same molecule, the T/C (dose: 313.0 micrograms/kg/injection) was 105 % of control [survivor count not shown], the T/C (dose: 625.0 micrograms/kg/injection) was 105 % of control [survivor count not shown] and the T/C (dose: 1250.0 micrograms/kg/injection) was 150 % of control [survivor count not shown]. For the same molecule, the T/C (dose: 2500.0 micrograms/kg/injection) was 158 % of control [survivor count not shown].
`NC1CCCCC1.NP(=O)(O)N(CCCl)CCCl` was tested, and the T/C (dose: 15.6 mg/kg/injection) was 146 % of control [survivor count not shown], the T/C (dose: 31.3 mg/kg/injection) was 181 % of control [survivor count not shown] and the T/C (dose: 62.5 mg/kg/injection) was 131 % of control [survivor count not shown].
With `CC(C(=O)O)N(CCCl)CCCl` (stereo not given) the T/C (dose: 0.5 mg/kg/injection) was 126 % of control [survivor count not shown], the T/C (dose: 1.0 mg/kg/injection) was 139 [survivor count not shown] and 140 % of control [survivor count not shown] and the T/C (dose: 2.0 mg/kg/injection) was 135 [survivor count not shown] and 150 % of control [survivor count not shown]. For the same molecule, the T/C (dose: 4.0 mg/kg/injection) was 133 [survivor count not shown] and 164 % of control [survivor count not shown].
For `O=C(O)CN(CCCl)CCCl`, the T/C (dose: 0.63 mg/kg/injection) was 120 % of control [survivor count not shown], the T/C (dose: 1.25 mg/kg/injection) was 132 [survivor count not shown] and 133 % of control [survivor count not shown] and the T/C (dose: 2.5 mg/kg/injection) was 140 [survivor count not shown] and 153 % of control [survivor count not shown]. For the same molecule, the T/C (dose: 5.0 mg/kg/injection) was 146 [survivor count not shown] and 160 % of control [survivor count not shown].
`ClCCNCCCl` was tested, and the T/C (dose: 9.4 mg/kg/injection) was 133 % of control [survivor count not shown], the T/C (dose: 18.8 mg/kg/injection) was 139 [survivor count not shown] and 153 % of control [survivor count not shown] and the T/C (dose: 37.5 mg/kg/injection) was 90 [survivor count not shown] and 214 % of control [survivor count not shown].
In the case of `ClCCN(CCCl)Cc1nc2ccccc2[nH]1`, the T/C (dose: 1.25 mg/kg/injection) was 106 [survivor count not shown] and 111 % of control [survivor count not shown], the T/C (dose: 2.5 mg/kg/injection) was 123 [survivor count not shown] and 127 % of control [survivor count not shown] and the T/C (dose: 5.0 mg/kg/injection) was 113 [survivor count not shown] and 153 % of control [survivor count not shown]. For the same molecule, the T/C (dose: 10.0 mg/kg/injection) was 107 [survivor count not shown] and 110 % of control [survivor count not shown].
